Source: US11738096B2, “Method of detecting diseased or damaged tissue with a pH-triggered polypeptide fluorophore composition” (University of Rhode Island Board of Trustees, priority 2016, dated 2023)
Entries after “also recorded” stand apart in the source; their conditions may differ. Not every detail of the peptide structures is certain; ends, links or a residue may be inferred. Some entries share one result that the patent states for a list of compounds. Where a SMILES comes first, the peptide text is derived from it. The star is where a group is joined. X2 = CC1(C)C(/C=C/C2=C(Oc3ccc(S(=O)(=O)O)cc3)C(=C/C=C3/N(CCCCCC(=O)NCCN4C(=O)CC(*)C4=O)c4ccc(S(=O)(=O)O)cc4C3(C)C)/CCC2)=[N+](CCCCS(=O)(=O)O)c2ccc(S(=O)(=O)[O-])cc21; X1 = CC1(C)C(/C=C/C=C/C=C/C=C2/N(CCCCCC(=O)NCCN3C(=O)CC(*)C3=O)c3ccc4ccccc4c3C2(C)C)=[N+](CCCCS(=O)(=O)[O-])c2ccc3ccccc3c21

Assays:
[1] = NIR fluorescence imaging of blood vessels and blood flow (ear, leg, blood samples) in mice; assay type: in vivo, mouse; conditions: for imaging of blood vessels in ear and leg: IV 100 μL of 40 μM, 5, 30, 60, 90, 120 min
Protocol: Adult female nude mice (Envigo), 20 g in body mass were used in the study. Fluorescent constructs were given as a single tail vein injection in amounts of 100 μL of 40 μM in PBS. Imaging of mouse ear and leg was performed at 5, 30, 60, 90 and 120 min after construct administration. At 5, 30, 60, 90 and 120 min after construct administration 5 μL of blood was withdrawn from tail (and mixed with 5 μL of anticoagulating solution to preserve blood) while animal was under anesthesia. Mice were euthanized immediately after last imaging point (120 min). Blood collected from all animals was deposited on the glass slide, dried and imaged. Imaging was performed using Novadaq clinical imaging instrument. Autofluorescence was established by imaging mouse with no injection of fluorescent constructs (the level of autofluorescence signal was insignificant compared to the signal after the constructs administration).

[2] = system: cancerous lesions in human bladder tissue; experiment: Ex vivo imaging of human bladder after cystectomy, 15 min instillation, NIR endoscope; conditions: 4 μM of 80 mL (1.34 mg) in PBS with glucose
[3] = system: 4T1 murine mammary carcinoma; experiment: Tumor targeting in mice bearing 4T1 tumors; assay type: in vivo, mouse; conditions: 20 μM, IV, 16 h
Protocol: Adult female nude mice and female BALB/cAnNHsd mice (Envigo), 20-25 g in body mass were used in the study. Mouse mammary cancer 4T1 cells were subcutaneously implanted in the right flank (8×10^5 cells/0.1 mL/flank) of adult female BALB/cAnNHsd mice. Rat bladder cancer AY27 cells were subcutaneously implanted in the right flank (8×10^5 cells/0.1 mL/flank) of adult female nude mice. When tumors reached approximately 5-6 mm in diameter, single tail vein injection or single intraperitoneal injection of fluorophore-pHLIP® solutions in PBS were performed. Fluorescent constructs were used in amounts of 100 μL of 40 μM, or 100 μL of 20 μM, or 100 μL of 10 μM, or 100 μL of 5 μM. Imaging of mouse was performed at 16 hours after constructs administration. Skin was removed from the tumor site just before imaging while animal was under gas anesthesia, and mice were euthanized immediately after imaging. Tumor, kidney and liver were harvested, imaged and used for histopathological analysis. Imaging was performed using Stryker clinical imaging instrument. Autofluorescence was established by imaging mouse with no injection of fluorescent constructs (the level of autofluorescence signal was insignificant compared to the signal after the constructs administration).

Which “imaging of blood vessels in ear and leg” value [1] does the source give for `CC[C@H](C)[C@H](NC(=O)[C@@H]1CCCN1C(=O)[C@H](CC(N)=O)NC(=O)[C@H](CCC(N)=O)NC(=O)[C@H](CCC(=O)O)NC(=O)[C@H](CSC1CC(=O)N(CCNC(=O)CCCCCN2/C(=C/C=C/C=C/C=C/C3=[N+](CCCCS(=O)(=O)[O-])c4ccc5ccccc5c4C3(C)C)C(C)(C)c3c2ccc2ccccc32)C1=O)NC(=O)[C@H](C)N)C(=O)N[C@@H](Cc1ccc(O)cc1)C(=O)N[C@@H](Cc1c[nH]c2ccccc12)C(=O)N[C@@H](C)C(=O)N[C@@H](CCCNC(=N)N)C(=O)N[C@@H](Cc1ccc(O)cc1)C(=O)N[C@@H](C)C(=O)N[C@@H](CC(N)=O)C(=O)N[C@@H](Cc1c[nH]c2ccccc12)C(=O)N[C@@H](CC(C)C)C(=O)N[C@@H](Cc1ccccc1)C(=O)N[C@H](C(=O)N[C@H](C(=O)N1CCC[C@H]1C(=O)N[C@@H](CC(C)C)C(=O)N[C@@H](CC(C)C)C(=O)N[C@@H](CC(C)C)C(=O)N[C@@H](CC(C)C)C(=O)N[C@@H](CC(N)=O)C(=O)N[C@@H](CC(C)C)C(=O)N[C@@H](C)C(=O)N[C@@H](CC(C)C)C(=O)N[C@@H](CC(C)C)C(=O)N[C@H](C(=O)N[C@@H](CC(=O)O)C(=O)N[C@@H](C)C(=O)N[C@@H](CC(=O)O)C(=O)N[C@@H](CCC(=O)O)C(=O)NCC(=O)N[C@H](C(=O)O)[C@@H](C)O)C(C)C)[C@@H](C)O)[C@@H](C)O` (stereo partly drawn) [ICG-NpHLIP®] (H-AC(X1)EQNPIYWARYANWLFTTPLLLLNLALLVDADEGT-OH) here?
Its value is “did not show good performance”.

Which results are given for `CC[C@H](C)[C@H](NC(=O)[C@@H]1CCCN1C(=O)[C@H](CC(N)=O)NC(=O)[C@H](CCC(N)=O)NC(=O)[C@H](CCC(=O)O)NC(=O)[C@H](CSC1CC(=O)N(CCNC(=O)CCCCCN2/C(=C/C=C/C=C/C=C/C3=[N+](CCCCS(=O)(=O)[O-])c4ccc5ccccc5c4C3(C)C)C(C)(C)c3c2ccc2ccccc32)C1=O)NC(=O)[C@H](C)N)C(=O)N[C@@H](Cc1ccc(O)cc1)C(=O)N[C@@H](Cc1c[nH]c2ccccc12)C(=O)N[C@@H](C)C(=O)N[C@@H](CCCNC(=N)N)C(=O)N[C@@H](Cc1ccc(O)cc1)C(=O)N[C@@H](C)C(=O)N[C@@H](CC(=O)O)C(=O)N[C@@H](Cc1c[nH]c2ccccc12)C(=O)N[C@@H](CC(C)C)C(=O)N[C@@H](Cc1ccccc1)C(=O)N[C@H](C(=O)N[C@H](C(=O)N1CCC[C@H]1C(=O)N[C@@H](CC(C)C)C(=O)N[C@@H](CC(C)C)C(=O)N[C@@H](CC(C)C)C(=O)N[C@@H](CC(C)C)C(=O)N[C@@H](CC(=O)O)C(=O)N[C@@H](CC(C)C)C(=O)N[C@@H](C)C(=O)N[C@@H](CC(C)C)C(=O)N[C@@H](CC(C)C)C(=O)N[C@H](C(=O)N[C@@H](CC(=O)O)C(=O)N[C@@H](C)C(=O)N[C@@H](CC(=O)O)C(=O)N[C@@H](CCC(=O)O)C(=O)NCC(=O)N[C@H](C(=O)O)[C@@H](C)O)C(C)C)[C@@H](C)O)[C@@H](C)O` (stereo partly drawn) [ICG-WT pHLIP®]?
imaging of blood vessels in ear and leg [1]: excellent persistent imaging of blood vessels within 2 hours; time of imaging of blood vessels and blood flow ([1]; after one IV injection): 2 to 3 h

Which results are given for `CC(C)C[C@H](NC(=O)[C@H](Cc1ccc(O)cc1)NC(=O)[C@H](C)NC(=O)[C@H](CCCNC(=N)N)NC(=O)[C@H](Cc1c[nH]c2ccccc12)NC(=O)[C@@H]1CCCN1C(=O)[C@H](CC(N)=O)NC(=O)[C@H](CCC(N)=O)NC(=O)[C@H](CC(=O)O)NC(=O)[C@H](CC(=O)O)NC(=O)[C@H](CSC1CC(=O)N(CCNC(=O)CCCCCN2/C(=C/C=C3\CCCC(/C=C/C4=[N+](CCCCS(=O)(=O)O)c5ccc(S(=O)(=O)[O-])cc5C4(C)C)=C3Oc3ccc(S(=O)(=O)O)cc3)C(C)(C)c3cc(S(=O)(=O)O)ccc32)C1=O)NC(=O)[C@H](C)N)C(=O)N[C@@H](CC(=O)O)C(=O)N[C@@H](CC(C)C)C(=O)N[C@@H](CC(C)C)C(=O)N[C@@H](Cc1ccccc1)C(=O)N1CCC[C@H]1C(=O)N[C@H](C(=O)N[C@@H](CC(=O)O)C(=O)N[C@H](C(=O)N[C@@H](CC(C)C)C(=O)N[C@@H](CC(C)C)C(=O)N[C@@H](CC(C)C)C(=O)N[C@@H](CC(=O)O)C(=O)N[C@@H](CC(C)C)C(=O)N[C@@H](CC(C)C)C(=O)N[C@@H](Cc1c[nH]c2ccccc12)C(=O)N[C@@H](C)C(=O)O)[C@@H](C)O)[C@@H](C)O` (stereo partly drawn) [IR800-Var3] (H-AC(X2)DDQNPWRAYLDLLFPTDTLLLDLLWA-OH)?
pathological diagnosis of tissue within the fluorescent outline/contour [2]: necrosis and treatment effect; also recorded: high grade TCC with squamous cell carcinoma (SCC); precision of tumor targeting [3]: target tumor with high precision; imaging of blood vessels in ear and leg [1]: better in imaging of blood vessels, however not nearly as good as ICG-WT and ICG-Var3 pHLIP®s
